Results are given in words; binding and its absence hold for the method and conditions named. In cells and extracts the contact can be indirect. Some entries that bind do so weakly or less than the wild type.
How the values were obtained:
[1] = molecular target: T1, Endogenous TxNIP of INS1 832/13 cells (rat (endogenous in INS1 832/13)) (UniProt Q5M7W1); assay: co-IP; endogenous proteins in INS1 832/13 cells, 24 h at 2.5 mM or 20 mM glucose supplemented with PUGNAc; lysis in IPH buffer; IP with anti-TxNIP antibody overnight at 4°C, protein G Sepharose; blot with anti-NLRP3
T1 sequence: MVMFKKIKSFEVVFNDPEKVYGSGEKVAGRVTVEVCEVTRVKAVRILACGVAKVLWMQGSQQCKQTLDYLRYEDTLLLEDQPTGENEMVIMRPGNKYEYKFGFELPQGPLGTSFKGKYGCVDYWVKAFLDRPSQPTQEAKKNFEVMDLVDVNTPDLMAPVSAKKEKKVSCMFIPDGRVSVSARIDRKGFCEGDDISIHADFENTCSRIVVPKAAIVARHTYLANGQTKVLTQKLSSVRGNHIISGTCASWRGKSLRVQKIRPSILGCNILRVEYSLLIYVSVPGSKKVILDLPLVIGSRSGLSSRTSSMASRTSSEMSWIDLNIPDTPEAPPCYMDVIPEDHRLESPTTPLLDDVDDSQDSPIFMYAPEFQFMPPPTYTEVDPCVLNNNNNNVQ

By UniProt entry, the sequences of proteins in these tests, tags left out.
UniProt D4A523: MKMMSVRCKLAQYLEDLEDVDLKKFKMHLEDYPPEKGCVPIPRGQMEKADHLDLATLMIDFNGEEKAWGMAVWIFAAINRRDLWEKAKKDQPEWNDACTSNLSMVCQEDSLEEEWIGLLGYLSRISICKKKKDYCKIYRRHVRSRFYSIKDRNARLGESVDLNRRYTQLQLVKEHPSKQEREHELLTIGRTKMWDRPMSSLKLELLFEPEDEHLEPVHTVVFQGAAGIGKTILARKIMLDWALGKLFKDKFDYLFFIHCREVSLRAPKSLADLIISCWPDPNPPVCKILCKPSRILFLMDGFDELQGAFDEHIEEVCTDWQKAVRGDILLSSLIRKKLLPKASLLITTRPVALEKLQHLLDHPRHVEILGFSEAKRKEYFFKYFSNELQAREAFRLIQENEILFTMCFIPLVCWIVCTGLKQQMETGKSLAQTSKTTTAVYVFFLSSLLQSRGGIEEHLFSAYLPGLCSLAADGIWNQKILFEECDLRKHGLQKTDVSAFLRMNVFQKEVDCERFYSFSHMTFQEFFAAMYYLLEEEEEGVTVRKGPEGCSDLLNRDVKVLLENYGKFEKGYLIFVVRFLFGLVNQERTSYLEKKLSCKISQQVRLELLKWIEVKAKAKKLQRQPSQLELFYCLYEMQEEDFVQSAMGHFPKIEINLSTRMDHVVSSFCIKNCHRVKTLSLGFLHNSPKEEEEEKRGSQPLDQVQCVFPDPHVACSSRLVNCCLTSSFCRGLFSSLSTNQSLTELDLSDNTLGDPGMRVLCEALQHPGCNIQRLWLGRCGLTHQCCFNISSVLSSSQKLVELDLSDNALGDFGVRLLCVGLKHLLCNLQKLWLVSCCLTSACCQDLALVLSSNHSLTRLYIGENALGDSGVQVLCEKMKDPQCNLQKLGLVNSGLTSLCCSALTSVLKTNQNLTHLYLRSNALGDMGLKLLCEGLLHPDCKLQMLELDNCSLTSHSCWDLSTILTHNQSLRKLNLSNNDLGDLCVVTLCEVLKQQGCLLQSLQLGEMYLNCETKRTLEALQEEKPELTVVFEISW
UniProt Q8R4B8: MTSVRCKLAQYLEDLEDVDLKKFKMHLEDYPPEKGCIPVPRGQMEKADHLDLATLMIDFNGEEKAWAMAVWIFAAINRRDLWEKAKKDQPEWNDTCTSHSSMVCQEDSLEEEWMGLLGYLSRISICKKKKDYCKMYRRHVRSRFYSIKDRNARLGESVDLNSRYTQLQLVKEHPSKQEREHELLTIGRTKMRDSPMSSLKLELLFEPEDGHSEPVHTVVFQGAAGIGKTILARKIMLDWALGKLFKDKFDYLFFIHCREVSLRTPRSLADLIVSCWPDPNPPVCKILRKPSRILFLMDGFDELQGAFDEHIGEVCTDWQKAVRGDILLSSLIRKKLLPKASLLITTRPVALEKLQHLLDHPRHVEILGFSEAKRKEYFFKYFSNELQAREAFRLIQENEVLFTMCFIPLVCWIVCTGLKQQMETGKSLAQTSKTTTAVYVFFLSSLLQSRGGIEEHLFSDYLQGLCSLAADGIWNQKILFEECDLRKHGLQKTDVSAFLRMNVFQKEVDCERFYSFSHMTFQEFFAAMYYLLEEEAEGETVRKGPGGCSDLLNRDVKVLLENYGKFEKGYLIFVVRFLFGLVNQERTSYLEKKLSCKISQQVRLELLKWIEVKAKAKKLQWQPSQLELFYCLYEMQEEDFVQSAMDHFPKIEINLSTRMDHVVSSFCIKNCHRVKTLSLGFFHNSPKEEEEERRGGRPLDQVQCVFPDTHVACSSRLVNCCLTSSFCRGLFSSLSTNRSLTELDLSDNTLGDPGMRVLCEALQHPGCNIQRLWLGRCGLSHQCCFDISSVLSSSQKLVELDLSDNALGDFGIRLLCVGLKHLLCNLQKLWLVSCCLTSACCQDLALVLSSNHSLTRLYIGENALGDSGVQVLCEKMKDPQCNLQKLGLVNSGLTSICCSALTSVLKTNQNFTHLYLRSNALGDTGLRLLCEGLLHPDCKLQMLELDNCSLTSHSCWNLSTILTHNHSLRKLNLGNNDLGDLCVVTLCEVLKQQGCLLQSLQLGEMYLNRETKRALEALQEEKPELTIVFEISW

[2] = molecular target: T2, Thioredoxin interacting protein (TxNIP), expressed from a plasmid in HEK293 cells (UniProt Q9H3M7); assay: co-IP; HEK293 cells co-transfected with TxNIP and NLRP3-FLAG (with or without OGT or OGA plasmids), 24 h at 5 mM or 25 mM glucose, or 5 mM glucose with PUGNAc and glucosamine; lysis in IPH buffer (20 mmol/L Tris/HCl, 150 mmol/L NaCl, 0.5% NP-40); IP with anti-TxNIP antibody overnight at 4°C, protein G Sepharose; blot with anti-Flag
T2 sequence (chain, O-GlcNAcylated to varying degree (sites not identified)): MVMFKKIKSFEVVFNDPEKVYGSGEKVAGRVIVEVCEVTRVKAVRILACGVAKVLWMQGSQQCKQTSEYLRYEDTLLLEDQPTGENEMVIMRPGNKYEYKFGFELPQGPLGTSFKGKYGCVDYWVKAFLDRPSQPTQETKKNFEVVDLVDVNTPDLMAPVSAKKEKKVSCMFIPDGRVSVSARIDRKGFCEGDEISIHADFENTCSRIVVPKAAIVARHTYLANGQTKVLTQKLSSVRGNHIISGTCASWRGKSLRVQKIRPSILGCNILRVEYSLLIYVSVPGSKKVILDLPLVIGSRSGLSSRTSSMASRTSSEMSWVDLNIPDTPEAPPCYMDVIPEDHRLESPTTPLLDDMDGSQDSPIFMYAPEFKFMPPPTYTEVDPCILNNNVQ

Substance	binding [1]	binding [2]
Endogenous NLRP3 of INS1 832/13 cells (from UniProt D4A523 1-1035)	binds	
NLRP3 (NOD-like receptor family pyrin domain containing 3) tagged with a FLAG epitope (from UniProt Q8R4B8 1-1033)		binds

From PMC6536593
